Test results as given in patent US20220193198A1 (INSTITUT CURIE, published 2022).

B1: IL-2V2 (ligand)
chain: APTSSTKETQEQLERLLRDLQLILKGINNPKNPKLTRMLTFKFYMPKQATSLKHLQCLEEELKPLEEVLNLAQSKNFHLEPRNLINNINKIVLKLKGSETTFMCEYADETATIVEFLKRWIAFCQSIISRSTGALVPRGSSAWSHPQFEKGGGSGGGSGGGSAWSHPQFEK
notes: 171 aa construct with C-terminal Strep-tag
B2: IL-2V1 (ligand)
chain: APTSSTKETQEQLERLLRDLQLILKGINNYKNPKLTRMLTFKFYMPKKATELKHLQCLEEELKPLEEVLNLAQSKNFHLRPRDLINNINKIVLKLKGSETTFMCEYADETATIVEFLKRWIAFCQKIISTLTGALVPRGSSAWSHPQFEKGGGSGGGSGGGSAWSHPQFEK
notes: 171 aa construct with C-terminal Strep-tag, made in HEK293 FreeStyle cells; the monomeric peak was used
B3: IL-2V3 (ligand)
chain: APTSSTKETQEQLERLLRDLQLILKGINNPKNPKLTRMLTFKFYMPKQATSLKHLQCLEEELKPLEEVLNLAQSKNFHLEPRNLINNINKIVLKLKGSETTFMCEYADETATIVEFLNRWITFCQSIISRSTGALVPRGSSAWSHPQFEKGGGSGGGSGGGSAWSHPQFEK
notes: 171 aa construct with C-terminal Strep-tag; Substitutions: K9E, L12E, H16R, L19R, M23L, N26K, Y31P, K49Q, E52S, R81E, D84N, S87N, V91K, E95K, T131R, L132S
B4: IL-2V5 (ligand)
chain: APTSSTKETQEQLERLLRDLQLILKGINNPKNPKLTRMLTFKFYMPKKATELKHLQCLEEELKPLEEVLNLAQSKNFHLRPRDLINNINKIVLKLKGSETTFMCEYADETATIVEFLKRWIAFCQKIISTLTGALVPRGSSAWSHPQFEKGGGSGGGSGGGSAWSHPQFEK
notes: 171 aa construct with C-terminal Strep-tag; Substitutions: K9E, L12E, H16R, L19R, M23L, N26K, Y31P, S87N, V91K, E95K, N119K, T123A, S127K
B5: IL-2V6 (ligand)
chain: APTSSTKETQEQLERLLRDLQLILKGINNYKNPKLTRMLTFKFYMPKQATSLKHLQCLEEELKPLEEVLNLAQSKNFHLEPRNLINNINKIVLKLKGSETTFMCEYADETATIVEFLKRWIAFCQSIISRSTGALVPRGSSAWSHPQFEKGGGSGGGSGGGSAWSHPQFEK
notes: 171 aa construct with C-terminal Strep-tag; Substitutions: K9E, L12E, H16R, L19R, M23L, N26K, K49Q, E52S, R81E, D84N, S87N, V91K, E95K, N119K, T123A, T131R, L132S
B6: IL-2V4 (ligand)
chain: APTSSTKKTQLQLEHLLLDLQMILNGINNPKNPKLTRMLTFKFYMPKKATELKHLQCLEEELKPLEEVLNLAQSKNFHLRPRDLISNINVIVLELKGSETTFMCEYADETATIVEFLNRWITFCQSIISTLTGALVPRGSSAWSHPQFEKGGGSGGGSGGGSAWSHPQFEK
notes: 171 aa construct with C-terminal Strep-tag; Substitution: Y31P only

These binders were tested against T1, IL-2Rαβγ (human, UniProt P01589 22-272; P14784 27-551; P31785 23-369) (assay: Flow cytometry on Kit225 cells, 10 µM Strep-tagged variant, Strep-Tactin-A488 detection).
T1 construct: whole, on cells; also called IL-2 receptor alpha (CD25), beta (CD122), gamma (CD132)
T1 sequence (looked up) 1: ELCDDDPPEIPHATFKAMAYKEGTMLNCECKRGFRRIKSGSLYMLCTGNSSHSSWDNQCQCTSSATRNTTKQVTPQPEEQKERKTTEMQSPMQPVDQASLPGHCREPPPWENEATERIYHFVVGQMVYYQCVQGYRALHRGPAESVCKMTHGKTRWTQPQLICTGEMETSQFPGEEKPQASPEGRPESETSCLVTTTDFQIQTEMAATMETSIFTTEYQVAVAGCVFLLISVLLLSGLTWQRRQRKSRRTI
T1 sequence (looked up) 2: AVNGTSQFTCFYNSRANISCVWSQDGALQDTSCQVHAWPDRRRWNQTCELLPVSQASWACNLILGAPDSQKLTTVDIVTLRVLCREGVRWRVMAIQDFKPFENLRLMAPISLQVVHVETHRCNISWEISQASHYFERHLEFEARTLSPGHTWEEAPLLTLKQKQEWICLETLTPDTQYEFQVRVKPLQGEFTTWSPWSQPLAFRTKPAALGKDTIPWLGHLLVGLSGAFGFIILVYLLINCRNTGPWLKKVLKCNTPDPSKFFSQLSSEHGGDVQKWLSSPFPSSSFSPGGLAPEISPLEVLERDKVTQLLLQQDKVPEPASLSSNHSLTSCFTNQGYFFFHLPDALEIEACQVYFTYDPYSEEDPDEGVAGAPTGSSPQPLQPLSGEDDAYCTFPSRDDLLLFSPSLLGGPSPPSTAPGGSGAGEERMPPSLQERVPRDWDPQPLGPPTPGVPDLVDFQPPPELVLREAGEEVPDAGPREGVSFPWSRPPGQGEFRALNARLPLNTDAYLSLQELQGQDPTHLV
T1 sequence (looked up) 3: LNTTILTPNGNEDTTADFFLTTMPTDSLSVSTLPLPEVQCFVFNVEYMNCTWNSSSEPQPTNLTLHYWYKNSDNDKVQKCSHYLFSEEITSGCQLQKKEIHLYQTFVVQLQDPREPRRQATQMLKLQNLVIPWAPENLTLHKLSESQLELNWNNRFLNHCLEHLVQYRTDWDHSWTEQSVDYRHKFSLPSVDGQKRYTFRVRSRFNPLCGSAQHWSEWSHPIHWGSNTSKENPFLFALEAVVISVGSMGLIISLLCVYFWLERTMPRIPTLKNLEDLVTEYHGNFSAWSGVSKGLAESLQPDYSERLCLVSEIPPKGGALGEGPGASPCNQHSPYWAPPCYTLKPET
Procedure: Binding of IL-2 variants to the IL-2Rαβγ was assayed in IL-2-dependent human cell line Kit225 cell line that constitutively expresses IL-2Rαβγ. For ease of detection, IL-2 variants were produced with a Streptavidin Tag that allows the detection of the molecules by FACS using an anti-Streptavidin-Tag antibody (a-Strep-Tag Ab). For the experiment, Kit225 cells were deprived of IL-2 for 2 days. After that, 0.2×10⁶ cells were incubated on ice for 20 min alone or with 10 μM of IL-2 wt, IL-2V1, V2, V3, V4, V5 and V6. After wash with PBS/0.2% BSA buffer, cells were stained with an a-Strep-Tag Ab (Strep-Tactin-A488, Iba) for 20 min at 4° C. Cells were acquired on a LSRII flow cytometer and analyzed with FlowJo software.
B1: binds. B2: binds. B3: binds. B4: binds. B5: binds. B6: binds.
